Data set [1] can be described thus: Affinity capillary electrophoresis (ACE), pH 7.4. The conditions noted are these: 30 mM phosphate buffer pH 7.4; at the optimal CD concentration printed in brackets beside the value. The source says:
To assess the CD complex formation capability of the five cathinone derivatives, we devised a screening ACE method tailored to closely mimic physiological conditions. In a preliminary study, the ACE conditions were optimized regarding the type, pH, and concentration of the background electrolyte, the applied voltage, and the injection parameters. […] In order to avoid high Joule heat generation, sufficiently low voltage should be used; thus, after registering the Ohm plot (I-U plot), it was set to 15 kV. Throughout our ACE measurements, corrections for viscosity and ionic strength were systematically implemented to ensure precise determination of complex stability constants.
The CE experiments were performed on a HP ^3DCE and on an Agilent 7100 instrument (Agilent Technologies, Waldbronn, Germany) equipped with a photodiode array detector and the Chemstation software for data handling. Untreated fused silica capillaries (50 µm id, 48.5 cm total, 40 cm effective length) were purchased from Agilent. Conditioning of new capillary was conducted by flushing with 1 M NaOH followed by 0.1 M NaOH and water for 30 min each. Prior to all runs, the capillary was preconditioned by rinsing with BGE (2 min). The temperature of the capillary was set to 25 °C. UV detection was performed at 215 nm, and 15–25 kV voltage was applied. Samples were injected hydrodynamically (150 mbar·sec, optimized in the 50–500 mbar·sec range). The CE-pH measurements were carried out applying 25 kV voltage and 200 mbar·sec injection.
The background electrolyte of the CE-pH measurements contained 25 mM Na2HPO4 and 25 mM Na2B4O7, and the appropriate pH was adjusted with hydrochloric acid. During the ACE measurements, 30 mM phosphate buffer pH 7.4 (30 mM Na2HPO4—NaOH) was used. The running buffer was 20 mM acetic acid adjusting with 1 M Tris the pH to 4.5 during the chiral screening experiments. The BGEs contained CDs at various concentrations (0.25–20 mM) in the ACE experiments and 1-5-10 mM in the chiral method optimization experiments.
Stock solutions of each cathinone analog (mephedrone, flephedrone, 4-MEC, butylone, and MDPV) were prepared separately in methanol (1 mg/ml), and appropriate dilutions with water were used to prepare sample solutions for the CE-pH titration and for the ACE studies applying DMSO as EOF marker, while their mixture was used during the chiral separation studies.
The simplest way to determine the mobility is from the migration times (tmax) read from the electropherograms from which the apparent mobility could be calculated, but more accurate mobility values could be obtained by the determination with the Haarhoff–van der Linde (HVL) function based on Equation (2). (2) HVLδ(t;a0,a1,a2,a3δ)=a0/a2a3δ2πexp[−1/2(t−a1/a2)^2]/1/exp(a3δ)−1+1/2[1+erf(t−a1/2a2)] where a0 is the area of the HVL function, a1 is the position of the Gaussian component, a2 is the standard deviation of the Gaussian component, and a3δ is the peak shape distortion. The application of the HVL function is necessary in the case of accurate ACE measurements because, in several cases, the peaks are distorted due to the complex formation, which makes reading the migration times and calculating the mobility more difficult and imprecise.
The most popular technique for quantifying the analyte–ligand interaction with CE is mobility shift ACE.

Data set [2] in a line: Chiral CE enantioseparation screening, pH 4.5.
A short description of data set [3]: Chiral CE enantioseparation screening, pH 4.5. This is another data set of the same source.
Data set [4] can be described thus: Chiral CE enantioseparation screening, pH 4.5. This is another data set of the same source.
A short description of data set [5]: Chiral CE enantioseparation screening, pH 4.5. This is another data set of the same source.
Data set [6] can be described thus: Chiral CE enantioseparation screening, pH 4.5. This is another data set of the same source.
Where [7] appears, read: 20 mM acetate buffer pH 4.5, CD 1 mM.
Where [8] appears, read: 20 mM acetate buffer pH 4.5, CD 5 mM.
Setting [9] is: 20 mM acetate buffer pH 4.5, CD 10 mM.
Where [10] appears, read: 20 mM acetate buffer pH 4.5, CD 1-5-10 mM.

Take `O=S(=O)(O)OC[C@H]1O[C@@H]2O[C@H]3[C@H](O)[C@@H](O)[C@@H](O[C@H]4[C@H](O)[C@@H](O)[C@@H](O[C@H]5[C@H](O)[C@@H](O)[C@@H](O[C@H]6[C@H](O)[C@@H](O)[C@@H](O[C@H]7[C@H](O)[C@@H](O)[C@@H](O[C@H]8[C@H](O)[C@@H](O)[C@@H](O[C@H]1[C@H](O)[C@H]2O)O[C@@H]8COS(=O)(=O)O)O[C@@H]7COS(=O)(=O)O)O[C@@H]6COS(=O)(=O)O)O[C@@H]5COS(=O)(=O)O)O[C@@H]4COS(=O)(=O)O)O[C@@H]3COS(=O)(=O)O` [HS-β-CD, heptakis-(6-O-sulfo)-β-CD]: the “Flephedrone maximal enantioresolution Rs” value in data set [1] is 0.7. Also, the “Mephedrone maximal enantioresolution Rs” value in data set [1] was found to be 6.2. In addition, the “Enantioseparation (Rs) of Flephedrone” value is listed as 3.1 in data set [2] (setting [7]) and 8.1 in data set [2] (setting [8]). Also, the “Enantioseparation (Rs) of Mephedrone” value in data set [3] (setting [7]) worked out at 2.9; in data set [3] (setting [8]), 9.2. Moreover, the “Enantioseparation (Rs) of 4-MEC” value is recorded as 2.4 in data set [4] (setting [7]) and 8.7 in data set [4] (setting [8]). Besides, the “Enantioseparation (Rs) of Butylone” value in data set [5] (setting [7]) worked out at 3.4; in data set [5] (setting [8]) it was 9.2. Further, the entries for the “Enantioseparation (Rs) of MDPV” value in data set [6] (setting [7]) and in data set [6] (setting [8]) were 3.4 and 11.7, respectively.

For `O=C(O)CCSC[C@H]1O[C@@H]2O[C@H]3[C@H](O)[C@@H](O)[C@@H](O[C@H]4[C@H](O)[C@@H](O)[C@@H](O[C@H]5[C@H](O)[C@@H](O)[C@@H](O[C@H]6[C@H](O)[C@@H](O)[C@@H](O[C@H]7[C@H](O)[C@@H](O)[C@@H](O[C@H]1[C@H](O)[C@H]2O)O[C@@H]7CSCCC(=O)O)O[C@@H]6CSCCC(=O)O)O[C@@H]5CSCCC(=O)O)O[C@@H]4CSCCC(=O)O)O[C@@H]3CSCCC(=O)O` [SAX, hexakis-(6-deoxy-6-(2-carboxyethyl)thio)-α-CD], the “MDPV maximal enantioresolution Rs” value in data set [1] is given as 1.3. The “Enantioseparation (Rs) of Flephedrone” value in data set [2] (setting [7]), in data set [2] (setting [8]) and in data set [2] (setting [9]) was 0 throughout. Further, in data set [3] (setting [7]), the “Enantioseparation (Rs) of Mephedrone” value came out at 0. Also, the “Enantioseparation (Rs) of 4-MEC” value in data set [4] (setting [7]) came to 0. In addition, the “Enantioseparation (Rs) of Butylone” value in data set [5] (setting [7]), in data set [5] (setting [8]) and in data set [5] (setting [9]) was 0 throughout. The “Enantioseparation (Rs) of MDPV” value in data set [6] (setting [7]) was 0.9; in data set [6] (setting [8]), 1.1; in data set [6] (setting [9]), 1.8.

As for carboxymethylated-γ-CD [CM-γ-CD], the “4-MEC maximal enantioresolution Rs” value in data set [1] is 1.7. Also, the “Butylone maximal enantioresolution Rs” value in data set [1] is 1.8. Further, the “Flephedrone maximal enantioresolution Rs” value in data set [1] is given as 0.7. Further, the “MDPV maximal enantioresolution Rs” value in data set [1] was 1.4. In addition, in data set [1], the “Mephedrone maximal enantioresolution Rs” value is reported as 2.6. The “Enantioseparation (Rs) of Flephedrone” value in data set [2] (setting [7]) stood at 0; in data set [2] (setting [8]) it was 0.9; in data set [2] (setting [9]), 0.9. In addition, the results for the “Enantioseparation (Rs) of Mephedrone” value in data set [3] (setting [7]), in data set [3] (setting [8]) and in data set [3] (setting [9]) were 1.1, 2.6 and 2.2, respectively. Also, the “Enantioseparation (Rs) of 4-MEC” value amounted to 0.7 in data set [4] (setting [7]), 2.1 in data set [4] (setting [8]) and 1.7 in data set [4] (setting [9]). Moreover, the “Enantioseparation (Rs) of Butylone” value in data set [5] (setting [7]) was 1.2; in data set [5] (setting [8]), 1.6; in data set [5] (setting [9]), 1.9. Moreover, the “Enantioseparation (Rs) of MDPV” value in data set [6] (setting [7]) was 0.9; in data set [6] (setting [8]), 1.9; in data set [6] (setting [9]) it was 0.5.

Turning to dimethylated-β-CD [DIME-β-CD], the “4-MEC maximal enantioresolution Rs” value in data set [1] was determined as 0.6. Besides, the “Enantioseparation (Rs) of Flephedrone” value in data set [2] (setting [7]) is 0; in data set [2] (setting [8]), 0.8; in data set [2] (setting [9]) it was 0.5. Also, the “Enantioseparation (Rs) of Mephedrone” value in data set [3] (setting [7]), in data set [3] (setting [8]) and in data set [3] (setting [9]) was 0 throughout. The “Enantioseparation (Rs) of 4-MEC” value in data set [4] (setting [7]), in data set [4] (setting [8]) and in data set [4] (setting [9]) was 0 throughout. Moreover, the “Enantioseparation (Rs) of Butylone” value in data set [5] (setting [7]), in data set [5] (setting [8]) and in data set [5] (setting [9]) was 0 each time. Further, the “Enantioseparation (Rs) of MDPV” value in data set [6] (setting [7]), in data set [6] (setting [8]) and in data set [6] (setting [9]) was 0 each time.

As to sulfobutyl-ether-γ-CD [SBE-γ-CD], the “Butylone maximal enantioresolution Rs” value in data set [1] amounted to 0.6. Also, the “Mephedrone maximal enantioresolution Rs” value in data set [1] worked out at 0.5. For the same compound, the “Enantioseparation (Rs) of Flephedrone” value in data set [2] (setting [7]), in data set [2] (setting [8]) and in data set [2] (setting [9]) was 0 throughout. In addition, the “Enantioseparation (Rs) of Mephedrone” value in data set [3] (setting [7]) was 0; in data set [3] (setting [8]) it was 1.1; in data set [3] (setting [9]), 0.9. The “Enantioseparation (Rs) of 4-MEC” value in data set [4] (setting [7]) was found to be 0; in data set [4] (setting [8]), 1.1; in data set [4] (setting [9]), 1.1. The figures for the “Enantioseparation (Rs) of Butylone” value in data set [5] (setting [7]), in data set [5] (setting [8]) and in data set [5] (setting [9]) were 0, 0.5 and 0.8, respectively. The “Enantioseparation (Rs) of MDPV” value in data set [6] (setting [7]) amounted to 0; in data set [6] (setting [8]) it was 0.6; in data set [6] (setting [9]) it was 0.

Turning to sulfobutyl-ether-α-CD [SBE-α-CD], in data set [1], the “4-MEC maximal enantioresolution Rs” value is on record as 2.1. In addition, in data set [1], the “Butylone maximal enantioresolution Rs” value is recorded as 1.1. The “MDPV maximal enantioresolution Rs” value in data set [1] is listed as 0.5. In data set [1], the “Mephedrone maximal enantioresolution Rs” value is 2.5. Besides, the “Enantioseparation (Rs) of Flephedrone” value in data set [2] (setting [7]) worked out at 0.3; in data set [2] (setting [8]) it was 0.4; in data set [2] (setting [9]) it was 0.5. For the same compound, the “Enantioseparation (Rs) of Mephedrone” value turned out to be 1.5 in data set [3] (setting [7]), 1.8 in data set [3] (setting [8]) and 2.3 in data set [3] (setting [9]). In addition, the results for the “Enantioseparation (Rs) of 4-MEC” value in data set [4] (setting [7]), in data set [4] (setting [8]) and in data set [4] (setting [9]) were 0.9, 1.6 and 2.2, respectively. Also, the “Enantioseparation (Rs) of Butylone” value in data set [5] (setting [7]) was 0.4; in data set [5] (setting [8]) it was 0.9; in data set [5] (setting [9]), 1.5. In addition, the “Enantioseparation (Rs) of MDPV” value was determined as 0.5 in data set [6] (setting [8]) and 0.8 in data set [6] (setting [9]).

With `CO[C@H]1[C@H]2O[C@H]3[C@H](OS(=O)(=O)O)[C@@H](OC)[C@@H](O[C@H]4[C@H](OS(=O)(=O)O)[C@@H](OC)[C@@H](O[C@H]5[C@H](OS(=O)(=O)O)[C@@H](OC)[C@@H](O[C@H]6[C@H](OS(=O)(=O)O)[C@@H](OC)[C@@H](O[C@H]7[C@H](OS(=O)(=O)O)[C@@H](OC)[C@@H](O[C@H]8[C@H](OS(=O)(=O)O)[C@@H](OC)[C@@H](O[C@@H]([C@@H]1OS(=O)(=O)O)[C@@H](COS(=O)(=O)O)O2)O[C@@H]8COS(=O)(=O)O)O[C@@H]7COS(=O)(=O)O)O[C@@H]6COS(=O)(=O)O)O[C@@H]5COS(=O)(=O)O)O[C@@H]4COS(=O)(=O)O)O[C@@H]3COS(=O)(=O)O` [HMDiSu-β-CD, heptakis-(2-O-methyl, 3,6-O-disulfo)-β-CD], the “Enantioseparation (Rs) of Flephedrone” value in data set [2] (setting [10]) amounted to 0. The “Enantioseparation (Rs) of Mephedrone” value in data set [3] (setting [10]) turned out to be 0. The “Enantioseparation (Rs) of 4-MEC” value in data set [4] (setting [10]) worked out at 0. For the same compound, the “Enantioseparation (Rs) of Butylone” value in data set [5] (setting [10]) worked out at 0. Moreover, in data set [6] (setting [10]), the “Enantioseparation (Rs) of MDPV” value was determined as 0.

The values above are taken from publication PMC10893103, “Cyclodextrin-Enabled Enantioselective Complexation Study of Cathinone Analogs” (Molecules, 2024).
